Values from PubChem BioAssay AID1259424 (University of Nebraska Medical Center, 2018).

Assay: 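Seek colon cancer survival genes behaving like KSR1, using a six-gene signature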 (primary screen)
Cells: human HCT116 colon cancer cells
Knock-down reagent: siRNA pool against human genes, 50 nM
Read-out: 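Log2 levels of six mRNAs (branched-DNA multiplex), adjusted by two reference genes and the non-targeting median, then scored against the average KSR1 knockdown pattern as Pearson r and euclidean distance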
Scale: mean correlation with KSR1 profile: higher = expression change more like KSR1 knockdown
The whole screen tested about 14,000 reagents; shown is a part drawn at random. 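Higher correlation or smaller distance means closer resemblance to KSR1 loss; control wells, including KSR1 knockdowns, recur on many plates.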 Not all columns of the deposit are shown. No sequences are given here. Not given: the time to read-out.

gene	mean correlation with KSR1 profile
SELL	0.069
AP2B1	-0.744
MYO18A	0.59
ADAMTS2	0.27
F11	-0.267
LRP6	-0.324
MBIP	0.676
F2RL2	0.461
CD151	-0.0261
TAS2R14	0.755
NEK6	0.786
COQ7	-0.415
PSMA4	-0.131
HGFAC	0.298
MED23	0.615
H2AC12	0.277
MRPS31	-0.388
MAP2K1	0.431
UPK3A	0.364
RBPJL	-0.226
KRT75	0.737
ARF1	-0.181
RHBG	-0.0367
GABRA6	0.382
CDKN2B	0.571
TAS2R7	0.569
TMEM74B	-0.109
PPP1R3D	-0.0759
POT1	0.181
DUSP21	0.116
ALDH8A1	-0.126
CD79B	-0.102
MAF	-0.739
LTBP2	0.812
